Drawing on publication PMC6438568, this text covers binding for three molecules.

Chains of the proteins cited; added tags and fusions are not shown. Lines headed by an entry give the natural chain unless they say otherwise; changes in a name come on top.
UniProt C8V7D1: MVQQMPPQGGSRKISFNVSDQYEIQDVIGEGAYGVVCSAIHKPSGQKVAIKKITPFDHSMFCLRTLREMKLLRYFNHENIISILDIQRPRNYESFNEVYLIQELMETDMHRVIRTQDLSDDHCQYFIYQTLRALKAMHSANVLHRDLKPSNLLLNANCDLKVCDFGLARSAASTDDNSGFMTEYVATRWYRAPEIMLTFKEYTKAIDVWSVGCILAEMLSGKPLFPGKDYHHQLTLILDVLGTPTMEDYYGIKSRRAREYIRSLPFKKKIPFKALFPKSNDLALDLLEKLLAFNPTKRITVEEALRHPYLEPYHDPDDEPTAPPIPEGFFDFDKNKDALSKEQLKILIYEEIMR

Results are given in words; binding and its absence hold for the method and conditions named. In cells and extracts the contact can be indirect. A yes stands for co-enrichment or nearness to the bait. Other partners may have been found.

The target of assay [1] is SipD (AN4632), SLMAP-related protein (Aspergillus nidulans) (UniProt Q5B498). Nature of the assay: affinity purification with mass spectrometry; TAP of Sip-TAP baits (SipA, SipB, SipC, SipD, SipE) from crude extracts of strains without StrA (strAΔ), LC-MS/MS; vegetative growth 24 h in liquid GMM.
Assay [2] has the same target. Briefly: affinity purification with mass spectrometry; tandem affinity purification (TAP) of the TAP-tagged bait (StrA, SipA, SipB, SipC, SipD or SipE, native locus) from A. nidulans crude extracts, LC-MS/MS; vegetative growth 24 h in liquid GMM at 37°C, StrA present; StrA-TAP also from 6 h light- and dark-induced cultures and in the absence of SipA; TAP of the WT strain as non-specific control; two biological replicates.

Assay [3] has as its target SipB (AN1010), SIKE-like protein (Aspergillus nidulans) (UniProt Q5BEM0). Nature of the assay: affinity purification with mass spectrometry; TAP of Sip-TAP baits (SipA, SipB, SipC, SipD, SipE) from crude extracts of strains without StrA (strAΔ), LC-MS/MS; vegetative growth 24 h in liquid GMM.
The target is the same in assay [4]. Nature of the assay: affinity purification with mass spectrometry; tandem affinity purification (TAP) of the TAP-tagged bait (StrA, SipA, SipB, SipC, SipD or SipE, native locus) from A. nidulans crude extracts, LC-MS/MS; vegetative growth 24 h in liquid GMM at 37°C, StrA present; StrA-TAP also from 6 h light- and dark-induced cultures and in the absence of SipA; TAP of the WT strain as non-specific control; two biological replicates.

For assay [5], the target named is MAPK MpkB, GFP fusion (Aspergillus nidulans) (UniProt C8V7D1). Nature of the assay: affinity purification with mass spectrometry; GFP pull-down of MpkB-GFP from A. nidulans crude extracts, LC-MS/MS; vegetative growth 24 h at 37°C, in the presence or absence of StrA; one or two biological replicates.

Turning to “SipB (AN1010), SIKE-like protein (from UniProt Q5BEM0)”, the binding entry in assay [1] and in assay [2] was “binds” each time.
For “SipD (AN4632), SLMAP-related protein (from UniProt Q5B498)”, the binding entry in assay [3] and in assay [4] was “binds” throughout.

B1: transcription factor SteA (protein, UniProt O74252 1-692)
chain: MYSQHGAPMAPPQKPETFMLSNEAQQSLPHDAQVALQQVDNLKYFLLSAPVDWQPDQLIRRFLLPTGDYISCVLWSNLFHISGTDIVRCLAFRFQAFGRPVKNSKKFEEGIFSDLRNLKAGTDATLEEPKSPFLDFLYKNNCIRTQKKQKVFYWYSVPHDRLFLDALERDLKREKMGQEATTVAVSEPALSFEFDSSQSLYEQLTKAQQANSSSFAAHASTTYGQSASPVVRTVDAMPPPQMAPQMAPPSIPLLTDESANSQMYTSIPMPNPIPQNLIKREADYGAIQYDRNGMPIARIHQRHSSMPTFVEYSPAPSFVSSQYEDYSNRGLSFEPVTPPQHSSHIGPEPAYIANEDTGLYTAIPEMSTGSGFNPMMHLPPSNLASAHFPTPARTFHSNVYSVLEGSPTYKQRRRRSSIPPGAANPVTTGTHSPAPALSYAAHKPSDLRRSVSSSVAPGDTDDSRHESLHRSVNSTYTATLPQKNLMHEMSRNGTPLSSVGEHREQSSIPLTQAEDLPALPANGTVESGAPNGVGHKSDRYATGPVRRARSATMMELGPYPQKSHSCPIPSCGRLFKRLEHLKRHVRTHTQERPYPCPYCNKAFSRSDNLAQHRRIHEAQQDGQPLVHEDDLENDDNESVSHDEDESPSESVHPAVPGVHGMTSMPSSVALQSTMGSMMGSHMIAPQLLQQQI
With B1, the binding result in assay [5] is “binds”.
